# Some of the results follow.
# Target: T1, OsSMF1 (Oryza sativa, UniProt Q6ZLB0 1-436)
# T1 sequence: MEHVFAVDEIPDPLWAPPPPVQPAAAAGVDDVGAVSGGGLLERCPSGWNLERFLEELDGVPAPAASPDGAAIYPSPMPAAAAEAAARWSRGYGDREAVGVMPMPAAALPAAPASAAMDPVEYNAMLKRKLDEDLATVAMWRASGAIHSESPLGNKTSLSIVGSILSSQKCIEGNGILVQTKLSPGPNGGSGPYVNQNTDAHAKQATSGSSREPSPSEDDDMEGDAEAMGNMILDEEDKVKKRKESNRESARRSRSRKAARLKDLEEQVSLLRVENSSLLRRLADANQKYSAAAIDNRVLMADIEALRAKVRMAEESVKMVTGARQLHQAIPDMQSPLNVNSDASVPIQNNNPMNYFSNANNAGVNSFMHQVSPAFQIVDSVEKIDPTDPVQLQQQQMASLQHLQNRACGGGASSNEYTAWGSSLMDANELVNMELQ
# Experiment: protein-binding microarray (RPBM); PBS, 2% BSA, 51.3 ng/ul salmon testes DNA, 50 uM zinc acetate, 200 nM TF, 25 C, 1 h; high values mean tight binding
# Details: protein: recombinant; tags: N-terminal polyhistidine and DsRed monomer fusion (pET32a); chain copies: 2; label: CyDye5-dUTP incorporated in the synthesized complementary strand; 3' TTTTT single-stranded linker to array surface; dsDNA, one strand shown
# Method in brief: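 Binding signal is reported as fluorescence intensity per feature (arbitrary units) from an Axon 4000B scanner. Incubation used 200 nM of each Ni–NTA-purified, N-terminally polyhistidine- and DsRed-fused transcription factor from E. coli BL21-CodonPlus on a double-stranded custom Agilent array for 1 h at 25 °C, with 50 µM zinc acetate in the buffer, followed by washing.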
row,Sequence,binding signal
1,GGGCCTAACCTGTCAGTCAGCATGGGCCACCCCGCCCATCCGGAGTCACCTAGTGCAG,4400 fluorescence intensity (a.u.)
2,GAGGACTGTTCAGGACTTGACAGAATTGAAGATGAGGGTCCGGAGTCACCTAGTGCAG,3360 fluorescence intensity (a.u.)
3,AGGACGTCACGTCACCGACACGTGGGGCCCACCCCACCCGCGGAGTCACCTAGTGCAG,13900 fluorescence intensity (a.u.)
4,CTTACCATCTCCCCAAGCGGGAGAGTGGACGTCATAATTTCGGAGTCACCTAGTGCAG,45700 fluorescence intensity (a.u.)
5,TCTTGGAGAGTTCACACTACACATCATTCTGATGATAACTCGGAGTCACCTAGTGCAG,3430 fluorescence intensity (a.u.)
6,CTTACCCCTATTAAATGTGCATGACACACCAGTGAAACCCCGGAGTCACCTAGTGCAG,4240 fluorescence intensity (a.u.)
7,CATGCGAAAGCTCAGCTATACATAGGAAAAGAAGAGGGAGCGGAGTCACCTAGTGCAG,26000 fluorescence intensity (a.u.)
8,TATTTGGTTTTGTAGGGGTTGGTTTGGGAAAATTGGAAAGCGGAGTCACCTAGTGCAG,4240 fluorescence intensity (a.u.)
9,CAGAAATGGGCACTGAGTCAAACAACACCACATCATTAATCGGAGTCACCTAGTGCAG,3690 fluorescence intensity (a.u.)
10,TTGTGTTAAGTATATTTCATTGTGACACACAAGAGCCCAGCGGAGTCACCTAGTGCAG,3390 fluorescence intensity (a.u.)
11,TAGTTTGATTCTGACCAAAGTCAAAATATCTTATAACCTGCGGAGTCACCTAGTGCAG,3180 fluorescence intensity (a.u.)
12,TTTGAACAATTAAACGGCAAATCTACGTGGCACCAATATACGGAGTCACCTAGTGCAG,11500 fluorescence intensity (a.u.)
13,GATCCCAATCTCCATCGCCGCCTCCACTCCAGTGTACCGCCGGAGTCACCTAGTGCAG,6420 fluorescence intensity (a.u.)
14,ATCTTGGGCAATGCCACATCCCCTCACCACCACCACCAACCGGAGTCACCTAGTGCAG,5030 fluorescence intensity (a.u.)
15,AAGTTGGTAGTTAATGAATCCACCTCATATGACAAGCTTCCGGAGTCACCTAGTGCAG,4600 fluorescence intensity (a.u.)
16,GGTGGTGTTCATGAGCGATGACTCTGCCTGCCATTCACATCGGAGTCACCTAGTGCAG,3910 fluorescence intensity (a.u.)
17,CAAATAACAACTACTTGTCACACTGCCATTAAAGAAAATACGGAGTCACCTAGTGCAG,37000 fluorescence intensity (a.u.)
18,CAACACCGCCACGTAGGCGCCACATCAGCAAAACCATCCTCGGAGTCACCTAGTGCAG,23200 fluorescence intensity (a.u.)
19,GGGCTAGGTTAGGACTACAAACTAGCGCATAAATCTCGAACGGAGTCACCTAGTGCAG,14900 fluorescence intensity (a.u.)
20,CTGGTGCAAGTTATTCCAAGTGCAGGGCTGTTGCTGTGAGCGGAGTCACCTAGTGCAG,18400 fluorescence intensity (a.u.)
21,TCAGGGGAATTTCCGTCAAAACGGCGTCTATCCACTCACCCGGAGTCACCTAGTGCAG,3400 fluorescence intensity (a.u.)

# A different layout for some results above.
row	Sequence	binding signal
9	CAGAAATGGGCACTGAGTCAAACAACACCACATCATTAATCGGAGTCACCTAGTGCAG	3690 fluorescence intensity (a.u.)
10	TTGTGTTAAGTATATTTCATTGTGACACACAAGAGCCCAGCGGAGTCACCTAGTGCAG	3390 fluorescence intensity (a.u.)

# More records

row,Sequence,binding signal
1,ACCAAAACTGCCTCGTGTCGGCATCAATAACACCAAGATGCGGAGTCACCTAGTGCAG,5680 fluorescence intensity (a.u.)
2,TAATTGCTAGTGAGTGAAGATGTGACATGCTTGCGTGGGACGGAGTCACCTAGTGCAG,3900 fluorescence intensity (a.u.)
3,TCAACACACAATCACGTAAGTATATATGGCTCCCTCCTTGCGGAGTCACCTAGTGCAG,3260 fluorescence intensity (a.u.)
4,GGAAATCGTGTGACGGATTTATTAAGCATAATTAATCTATCGGAGTCACCTAGTGCAG,14400 fluorescence intensity (a.u.)
5,GTCTCACTGGGATGTTGACGTGGGCAGATTACCGAATACGCGGAGTCACCTAGTGCAG,4670 fluorescence intensity (a.u.)
6,AATCCAATCAGCATACGACACATCAGCATTTTATTAAGTGCGGAGTCACCTAGTGCAG,8010 fluorescence intensity (a.u.)
7,TGCTGATATTAATGGGTGTGAGGACTTGTACTTTATGAGACGGAGTCACCTAGTGCAG,4060 fluorescence intensity (a.u.)
8,GAGAGGCGCAGGGGCGGCGGCCCGGCAGTGGCGGGAGGGGCGGAGTCACCTAGTGCAG,3250 fluorescence intensity (a.u.)
9,ACAGTAGTTACACCTCATTTACAAATTTACATACTAATTGCGGAGTCACCTAGTGCAG,3450 fluorescence intensity (a.u.)
10,TAGCTAAACCTTACTCCCAAAATTCAGATTGATGAATGCACGGAGTCACCTAGTGCAG,29400 fluorescence intensity (a.u.)
11,AAATTGAGGTGGTTGCCAGAATTTTAAAATTTTCGTGAATCGGAGTCACCTAGTGCAG,3630 fluorescence intensity (a.u.)
12,TCCAACCAGATCATGCGACGAGGCTTAATTACGTGTACATCGGAGTCACCTAGTGCAG,3550 fluorescence intensity (a.u.)
13,CAGGCGCACCGCCTCCACCGCGACACGCCGTGTGAGCGCGCGGAGTCACCTAGTGCAG,3260 fluorescence intensity (a.u.)
14,GGGGCGGAATAATAGCGGAATGTGATCGTGCCGTGTAATGCGGAGTCACCTAGTGCAG,3480 fluorescence intensity (a.u.)
15,CTCCTCATAGATTCTGCTGACGTGGACAACCTAAGCAAGCCGGAGTCACCTAGTGCAG,32200 fluorescence intensity (a.u.)
16,ATTTCTACCTGACGAAGTGACGATGCACTAGCCAGCTACTCGGAGTCACCTAGTGCAG,3900 fluorescence intensity (a.u.)
17,TTAAACGAATCTCGTTGATCATAGCAGCATGTCAGCATCTCGGAGTCACCTAGTGCAG,4840 fluorescence intensity (a.u.)
18,CTGAGTATTGTTGTGGGTCCCAGATGTCAGTGATGTTGTACGGAGTCACCTAGTGCAG,3700 fluorescence intensity (a.u.)
19,TAACAAATAACCTTAAGTCCTTAACAAATAATAAGTGCACCGGAGTCACCTAGTGCAG,3190 fluorescence intensity (a.u.)
20,GGACAGTACAATCATACCGTTCTCTGACTGCTGAATAGGACGGAGTCACCTAGTGCAG,3290 fluorescence intensity (a.u.)
21,GAGACTCCAGCCGCTGCCGCCGCCACCACCCACGTCGGCGCGGAGTCACCTAGTGCAG,5940 fluorescence intensity (a.u.)

# — publication PMC7819943, “Rice protein-binding microarrays: a tool to detect cis-acting elements near promoter regions in rice”
